Experimental data as given in article PMC9723633.
No constants are given. Whether binding was seen depends on the method and setting. In cells and extracts the contact can be indirect. These calls come from enrichment with a bait or labelling near it, and not all partners need be listed. For some assays here: No binding means not detected with the bait.

The chains behind the UniProt entries cited, without tags or fusion partners.
UniProt P61406: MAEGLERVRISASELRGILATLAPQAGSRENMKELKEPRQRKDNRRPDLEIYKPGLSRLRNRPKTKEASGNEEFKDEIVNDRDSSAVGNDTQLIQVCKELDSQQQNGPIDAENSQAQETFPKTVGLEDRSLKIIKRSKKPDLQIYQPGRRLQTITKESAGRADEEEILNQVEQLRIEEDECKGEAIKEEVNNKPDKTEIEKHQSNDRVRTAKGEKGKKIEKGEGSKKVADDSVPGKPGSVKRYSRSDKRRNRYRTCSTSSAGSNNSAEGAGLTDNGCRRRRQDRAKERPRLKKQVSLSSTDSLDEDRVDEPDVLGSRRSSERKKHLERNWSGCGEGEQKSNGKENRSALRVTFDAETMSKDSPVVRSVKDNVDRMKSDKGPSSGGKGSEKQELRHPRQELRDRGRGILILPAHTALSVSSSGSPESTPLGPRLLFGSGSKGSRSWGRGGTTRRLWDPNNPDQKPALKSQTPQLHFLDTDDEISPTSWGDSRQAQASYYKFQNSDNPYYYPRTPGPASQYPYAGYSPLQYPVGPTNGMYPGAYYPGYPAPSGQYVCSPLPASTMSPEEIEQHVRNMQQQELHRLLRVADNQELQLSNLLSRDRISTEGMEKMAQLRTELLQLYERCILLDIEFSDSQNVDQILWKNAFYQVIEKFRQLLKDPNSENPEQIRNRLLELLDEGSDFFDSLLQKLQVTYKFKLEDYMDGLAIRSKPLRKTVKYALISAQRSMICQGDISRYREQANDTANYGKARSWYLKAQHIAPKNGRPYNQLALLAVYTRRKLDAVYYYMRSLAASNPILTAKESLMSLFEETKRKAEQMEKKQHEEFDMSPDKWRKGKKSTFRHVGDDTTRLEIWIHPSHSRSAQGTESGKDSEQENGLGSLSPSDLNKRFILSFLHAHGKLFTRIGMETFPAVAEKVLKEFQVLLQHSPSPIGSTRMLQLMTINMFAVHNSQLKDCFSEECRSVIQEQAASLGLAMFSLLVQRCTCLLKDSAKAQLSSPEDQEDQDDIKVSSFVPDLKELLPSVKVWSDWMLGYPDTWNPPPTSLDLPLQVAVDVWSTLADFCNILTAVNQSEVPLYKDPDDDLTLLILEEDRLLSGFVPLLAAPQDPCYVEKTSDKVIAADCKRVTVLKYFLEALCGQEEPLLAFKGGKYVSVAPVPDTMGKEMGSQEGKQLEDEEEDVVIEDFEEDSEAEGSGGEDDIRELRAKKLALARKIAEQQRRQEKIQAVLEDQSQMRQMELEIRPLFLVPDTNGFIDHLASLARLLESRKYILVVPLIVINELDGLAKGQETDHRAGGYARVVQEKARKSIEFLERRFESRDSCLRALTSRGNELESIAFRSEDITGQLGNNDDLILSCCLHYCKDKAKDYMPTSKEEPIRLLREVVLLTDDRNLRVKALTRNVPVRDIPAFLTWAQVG
UniProt Q91W18: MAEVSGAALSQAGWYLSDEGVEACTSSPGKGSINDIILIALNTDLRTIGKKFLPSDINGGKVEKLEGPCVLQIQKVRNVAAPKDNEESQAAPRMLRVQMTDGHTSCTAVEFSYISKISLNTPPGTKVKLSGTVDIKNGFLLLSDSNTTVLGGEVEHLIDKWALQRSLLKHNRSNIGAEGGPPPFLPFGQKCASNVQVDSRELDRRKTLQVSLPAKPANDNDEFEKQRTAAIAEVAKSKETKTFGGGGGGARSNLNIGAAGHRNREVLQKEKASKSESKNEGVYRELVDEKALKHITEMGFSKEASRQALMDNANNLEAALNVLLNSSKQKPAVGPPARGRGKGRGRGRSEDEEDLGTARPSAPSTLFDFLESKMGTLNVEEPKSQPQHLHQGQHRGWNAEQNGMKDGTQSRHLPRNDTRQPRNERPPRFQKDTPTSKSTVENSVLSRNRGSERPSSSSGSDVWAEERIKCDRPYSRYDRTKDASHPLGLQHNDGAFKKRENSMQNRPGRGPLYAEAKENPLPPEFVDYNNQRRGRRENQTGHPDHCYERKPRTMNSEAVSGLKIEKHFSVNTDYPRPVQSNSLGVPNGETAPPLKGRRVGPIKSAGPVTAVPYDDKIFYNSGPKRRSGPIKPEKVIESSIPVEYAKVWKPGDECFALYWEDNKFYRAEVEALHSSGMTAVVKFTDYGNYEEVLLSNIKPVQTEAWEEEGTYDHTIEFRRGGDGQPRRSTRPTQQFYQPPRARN
UniProt Q91VC3: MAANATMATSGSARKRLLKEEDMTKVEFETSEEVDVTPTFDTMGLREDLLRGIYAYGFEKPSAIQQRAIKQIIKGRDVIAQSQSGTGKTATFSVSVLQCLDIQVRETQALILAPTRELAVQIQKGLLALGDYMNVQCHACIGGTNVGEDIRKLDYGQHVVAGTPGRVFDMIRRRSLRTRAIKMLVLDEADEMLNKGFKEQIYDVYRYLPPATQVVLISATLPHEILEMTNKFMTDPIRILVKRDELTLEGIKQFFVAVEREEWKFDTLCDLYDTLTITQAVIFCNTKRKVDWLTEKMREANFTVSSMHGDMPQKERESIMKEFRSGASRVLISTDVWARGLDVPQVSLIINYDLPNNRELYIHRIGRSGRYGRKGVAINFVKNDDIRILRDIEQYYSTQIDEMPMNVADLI
UniProt Q9JMB7: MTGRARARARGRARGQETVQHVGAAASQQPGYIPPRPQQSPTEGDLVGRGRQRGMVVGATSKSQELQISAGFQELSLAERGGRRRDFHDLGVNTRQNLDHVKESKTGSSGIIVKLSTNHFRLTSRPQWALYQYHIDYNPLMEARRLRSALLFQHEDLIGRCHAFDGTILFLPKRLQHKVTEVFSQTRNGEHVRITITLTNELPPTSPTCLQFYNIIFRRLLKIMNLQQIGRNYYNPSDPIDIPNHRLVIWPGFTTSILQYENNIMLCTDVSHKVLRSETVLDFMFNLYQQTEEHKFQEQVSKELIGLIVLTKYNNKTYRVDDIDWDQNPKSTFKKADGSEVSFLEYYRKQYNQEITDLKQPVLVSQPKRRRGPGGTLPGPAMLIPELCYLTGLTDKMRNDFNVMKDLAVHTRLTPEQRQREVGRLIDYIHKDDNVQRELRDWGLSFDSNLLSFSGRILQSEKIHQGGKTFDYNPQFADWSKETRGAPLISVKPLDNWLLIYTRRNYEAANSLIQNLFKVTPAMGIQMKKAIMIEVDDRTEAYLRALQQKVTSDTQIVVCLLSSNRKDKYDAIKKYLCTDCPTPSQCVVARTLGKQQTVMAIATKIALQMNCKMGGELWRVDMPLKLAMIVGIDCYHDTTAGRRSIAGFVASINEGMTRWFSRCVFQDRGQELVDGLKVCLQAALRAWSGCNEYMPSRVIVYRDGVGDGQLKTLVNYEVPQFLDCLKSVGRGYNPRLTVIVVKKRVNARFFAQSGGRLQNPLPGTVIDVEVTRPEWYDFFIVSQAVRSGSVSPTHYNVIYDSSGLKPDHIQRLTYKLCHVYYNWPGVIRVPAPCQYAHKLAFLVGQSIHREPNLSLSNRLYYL
UniProt Q61990: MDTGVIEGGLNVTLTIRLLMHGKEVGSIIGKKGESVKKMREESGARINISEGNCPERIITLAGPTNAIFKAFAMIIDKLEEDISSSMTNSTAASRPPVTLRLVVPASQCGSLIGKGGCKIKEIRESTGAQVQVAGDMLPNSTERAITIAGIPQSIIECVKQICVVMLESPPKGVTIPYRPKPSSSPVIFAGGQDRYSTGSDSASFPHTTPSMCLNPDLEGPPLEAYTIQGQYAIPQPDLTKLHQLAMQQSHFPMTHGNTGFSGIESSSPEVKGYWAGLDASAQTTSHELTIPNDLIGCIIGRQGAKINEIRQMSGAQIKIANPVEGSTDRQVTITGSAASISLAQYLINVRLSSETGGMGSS
UniProt Q61545: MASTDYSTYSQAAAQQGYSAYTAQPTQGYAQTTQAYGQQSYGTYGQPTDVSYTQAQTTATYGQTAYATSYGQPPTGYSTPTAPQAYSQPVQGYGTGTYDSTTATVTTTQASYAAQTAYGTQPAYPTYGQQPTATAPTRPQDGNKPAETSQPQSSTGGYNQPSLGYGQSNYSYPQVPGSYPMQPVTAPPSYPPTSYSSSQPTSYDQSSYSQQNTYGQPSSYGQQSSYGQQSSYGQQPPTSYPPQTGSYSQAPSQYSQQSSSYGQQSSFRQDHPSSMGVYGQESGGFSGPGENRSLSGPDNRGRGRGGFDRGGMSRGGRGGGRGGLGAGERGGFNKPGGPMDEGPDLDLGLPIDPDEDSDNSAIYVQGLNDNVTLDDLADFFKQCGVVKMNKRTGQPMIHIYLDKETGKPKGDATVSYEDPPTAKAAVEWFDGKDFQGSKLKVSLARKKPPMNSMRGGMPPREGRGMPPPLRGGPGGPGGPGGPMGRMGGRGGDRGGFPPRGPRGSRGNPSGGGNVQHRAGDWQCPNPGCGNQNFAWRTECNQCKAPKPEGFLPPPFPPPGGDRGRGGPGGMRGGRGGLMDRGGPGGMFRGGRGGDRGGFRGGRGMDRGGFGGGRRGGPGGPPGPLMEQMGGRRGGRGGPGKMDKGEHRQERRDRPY

T1: DEAD box polypeptide 4 (DDX4) (mouse (endogenous in testis)) (UniProt Q61496)
T1 sequence: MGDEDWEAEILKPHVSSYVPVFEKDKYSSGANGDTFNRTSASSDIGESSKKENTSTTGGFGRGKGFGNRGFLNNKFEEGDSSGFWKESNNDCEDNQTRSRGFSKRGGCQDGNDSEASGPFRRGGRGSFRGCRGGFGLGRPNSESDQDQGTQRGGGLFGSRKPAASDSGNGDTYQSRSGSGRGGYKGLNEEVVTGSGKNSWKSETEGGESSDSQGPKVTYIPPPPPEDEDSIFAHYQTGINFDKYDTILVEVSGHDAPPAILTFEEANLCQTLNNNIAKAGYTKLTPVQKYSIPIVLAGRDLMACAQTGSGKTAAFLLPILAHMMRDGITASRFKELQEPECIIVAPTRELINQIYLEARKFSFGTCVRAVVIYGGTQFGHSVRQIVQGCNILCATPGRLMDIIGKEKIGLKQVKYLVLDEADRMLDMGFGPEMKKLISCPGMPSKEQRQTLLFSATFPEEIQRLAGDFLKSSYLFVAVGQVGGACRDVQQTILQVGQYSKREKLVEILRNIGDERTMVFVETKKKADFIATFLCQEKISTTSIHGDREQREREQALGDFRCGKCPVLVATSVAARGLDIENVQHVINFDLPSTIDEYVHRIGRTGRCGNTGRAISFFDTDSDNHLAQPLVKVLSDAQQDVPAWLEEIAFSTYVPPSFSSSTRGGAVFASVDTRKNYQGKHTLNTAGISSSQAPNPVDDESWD

T2: SMG7 (mouse (endogenous in testis)) (UniProt Q5RJH6)
T2 sequence: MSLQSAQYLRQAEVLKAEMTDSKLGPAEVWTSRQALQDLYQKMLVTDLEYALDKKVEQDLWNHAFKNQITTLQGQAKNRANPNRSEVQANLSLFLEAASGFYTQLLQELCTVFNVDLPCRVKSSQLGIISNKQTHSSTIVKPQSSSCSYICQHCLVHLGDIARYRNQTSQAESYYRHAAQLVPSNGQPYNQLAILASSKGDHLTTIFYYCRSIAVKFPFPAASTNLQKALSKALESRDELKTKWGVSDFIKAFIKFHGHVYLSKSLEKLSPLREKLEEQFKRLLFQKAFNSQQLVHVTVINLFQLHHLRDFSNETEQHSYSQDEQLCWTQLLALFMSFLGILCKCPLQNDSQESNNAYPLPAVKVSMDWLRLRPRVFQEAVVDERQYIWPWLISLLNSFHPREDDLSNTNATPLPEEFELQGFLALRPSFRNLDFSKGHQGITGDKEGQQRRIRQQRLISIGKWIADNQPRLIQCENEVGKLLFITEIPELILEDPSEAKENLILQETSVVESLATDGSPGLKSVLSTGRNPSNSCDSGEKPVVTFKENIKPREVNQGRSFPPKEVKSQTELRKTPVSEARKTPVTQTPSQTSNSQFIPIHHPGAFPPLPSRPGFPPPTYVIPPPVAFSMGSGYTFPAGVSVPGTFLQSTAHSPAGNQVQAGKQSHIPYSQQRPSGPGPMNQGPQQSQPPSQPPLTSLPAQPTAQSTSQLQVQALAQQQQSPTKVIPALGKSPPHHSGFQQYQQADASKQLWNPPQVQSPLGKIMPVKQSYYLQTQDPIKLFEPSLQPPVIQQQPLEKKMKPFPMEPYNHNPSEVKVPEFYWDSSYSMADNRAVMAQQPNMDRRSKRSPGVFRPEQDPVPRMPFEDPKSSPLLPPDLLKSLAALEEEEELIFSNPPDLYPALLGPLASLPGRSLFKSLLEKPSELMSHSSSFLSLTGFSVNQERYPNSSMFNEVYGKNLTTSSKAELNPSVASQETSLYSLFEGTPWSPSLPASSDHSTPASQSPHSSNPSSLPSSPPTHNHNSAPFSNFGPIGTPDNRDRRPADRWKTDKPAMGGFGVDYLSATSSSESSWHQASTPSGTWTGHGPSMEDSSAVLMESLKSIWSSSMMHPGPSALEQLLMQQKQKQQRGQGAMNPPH

T3: DEAD box polypeptide 4 (DDX4) (mouse (endogenous in testis)), Q61496
T3 chain: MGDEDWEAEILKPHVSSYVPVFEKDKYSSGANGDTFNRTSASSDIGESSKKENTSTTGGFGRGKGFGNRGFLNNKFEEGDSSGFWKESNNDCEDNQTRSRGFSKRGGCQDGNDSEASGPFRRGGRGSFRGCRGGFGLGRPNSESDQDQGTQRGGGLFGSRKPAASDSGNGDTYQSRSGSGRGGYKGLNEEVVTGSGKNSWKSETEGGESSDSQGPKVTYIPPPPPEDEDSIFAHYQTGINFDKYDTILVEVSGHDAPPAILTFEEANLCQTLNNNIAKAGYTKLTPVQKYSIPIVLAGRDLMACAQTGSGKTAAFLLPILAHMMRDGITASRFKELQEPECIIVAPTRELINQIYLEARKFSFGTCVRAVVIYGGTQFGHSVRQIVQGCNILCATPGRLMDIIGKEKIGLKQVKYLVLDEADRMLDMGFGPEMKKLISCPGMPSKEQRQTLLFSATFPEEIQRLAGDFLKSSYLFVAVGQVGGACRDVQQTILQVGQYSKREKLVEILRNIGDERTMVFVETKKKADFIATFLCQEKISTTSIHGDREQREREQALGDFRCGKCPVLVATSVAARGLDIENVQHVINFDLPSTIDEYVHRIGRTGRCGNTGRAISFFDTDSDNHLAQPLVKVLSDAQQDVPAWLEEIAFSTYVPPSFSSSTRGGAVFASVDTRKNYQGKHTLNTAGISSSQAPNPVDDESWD


How the values were obtained:
[1] = target: SMG6 (mouse (endogenous in testis)) (UniProt P61406); assay: affinity purification with mass spectrometry; IP with anti-SMG6, anti-SMG7 or rabbit IgG from adult mouse testis lysate in nondenaturing lysis buffer, LC-ESI-MS/MS; threshold of at least 1 peptide hit in at least two replicate IPs
[2] = target: T1, DEAD box polypeptide 4 (DDX4) (mouse (endogenous in testis)); assay: affinity purification with mass spectrometry; chromatoid bodies isolated by anti-DDX4 IP from 0.1% PFA cross-linked mouse germ cells (Smg6-cKO and control), LC-ESI-MS/MS; rabbit IgG as control
[3] = target: T2, SMG7 (mouse (endogenous in testis)); assay: affinity purification with mass spectrometry; IP with anti-SMG6, anti-SMG7 or rabbit IgG from adult mouse testis lysate in nondenaturing lysis buffer, LC-ESI-MS/MS; threshold of at least 1 peptide hit in at least two replicate IPs
[4] = target: T3, DEAD box polypeptide 4 (DDX4) (mouse …); assay: affinity purification with mass spectrometry; chromatoid bodies isolated by anti-DDX4 IP from 0.1% PFA cross-linked mouse germ cells (Smg6-cKO and control), LC-ESI-MS/MS; rabbit IgG as control; settings: remark: other sources report otherwise

| Molecule | binding [1] | also measured |
| --- | --- | --- |
| TDRD3 (from UniProt Q91W18 1-743) | binds | – |
| EIF4A3 (from UniProt Q91VC3 1-411) | binds | – |
| PIWIL1 (from UniProt Q9JMB7 1-862) | – | binding [2]: binds |
| SMG5 (protein, UniProt Q6ZPY2 1-1017) MSQGPPPGESSEPEAKVLHTKRLYRAVVEAVHRLDLILCNKAAYQEVFKPENVSLRNKLRELCVKLMFLHPVDYGRKAEELLWRKVYYEVIQLIKTNKKHIHSRSTLECAYRTHLVAGIGFYQHLLLYIQSHYQLELQCCIDWTHVTDPLMGFKKPVSASGKEMDWAQMACHRCLVYLGDLSRYQNELAGVDTELLAERFYYQALSVAPQIGMPFNQLGTLAGSKYYNVEAMYCYLRCIQSEVSFEGAYGNLKRLYDKAAKMYHQLKKSETRKLSPSKKRCKDIKRLLVNFMYLQSLLQPKSSSVDSELTSLCQSVLEDFNLCLFYLPSSPNLGLTNEDEEECESGYAFLPDLLIFQMAIICLMGVHSLKRAGSKHYSAAIAFTLALFSHLINHVNIRLQAELEEGENPVSAFQSDGTDEPESKEALEKEEPEPEPPTVVPQADEGRKSRKHSRLSCLRRRRRHHPPKAGDDSDLSEGFESDSSHDSAQASDGSDSGSDKSLEGRGTAFDAETDSEMNSQESRSDLEDMEDEEGTRSPAQEPPQARSEVPDSLNGPLGPSEASIASNLQAMSTQMFQTKRCFRLAPTFSNLLLQPTTEPNSVASHRPCVNGDMDKPLEPASEDGSESEGSESSNRSCRNERSLQEKLQALMAEGLLPAVKVFLDWLRTNPDLIIVCAQSSQSLWNRLSVLLNLLPASAELQDSGLALCSEVQGLLEGCELPDLPASLLLPEDMALRNLPPLRAAHRRFNFDADRPLLSALEESVVRICCIRSFGHFVARLQGSILQFNPEVGIFVSIAQSEQESLLQQAQAQFRMAEEEARRNRLMRDMAQLRLQLEVSQLEGSLQQPKAQSAMSPYLIPDTQALCYHLPLIRQLATSGRFIIIIPRTVIDGLDLLKKEQPGARDGIRYLEAEFKKGNRYIRCQKEVGKSFERHKLKRQDADAWTLYKILDSCRQLTLAQGAGEEDPSGMVTIITGLHLDSPSALSGPMQAALQAAAHASVDVKNVLDFYRQWKEIG | – | binding [3]: binds |
| GTSF1 (protein, UniProt Q9DAN6 1-167) MEDTYIDSLDPEKLLQCPYDKNHQIRACRFPYHLIKCRKNHPDVANKLATCPFNARHQVPRAEISHHISSCDDKSCIEQDVVNQTRNLGQETLAESTWQCPPCDEDWDKDLWEQTSTPFVWGTASFCGNNSPANNIVMEHKSNLASGMRVPKSLPYVLPWKNNGNAQ | – | binding [2]: no binding |
| DDX25, Q9QY15 1-484 (protein) MASLLWGGDAGAAESERLNSHFSNLVHPRKNLRGIRSTTVPNIDGSLNTEDDDDDEDDVVDLAANSLLNKLIRQSLIESSHRVEVLQKDPSSPLYSVKTFEELRLKEELLKGIYAMGFNRPSKIQEMALPMMLAHPPQNLIAQSQSGTGKTAAFVLAMLSRVNALELFPQCLCLAPTYELALQTGRVVERMGKFCVDVEVMYAIRGNRIPRGTEVTKQIIIGTPGTVLDWCFKRKLIDLTKIRVFVLDEADVMIDTQGFSDQSIRIQRALPSECQMLLFSATFEDSVWQFAERIIPDPNVIKLRKEELTLNNIRQYYVLCENRKGKYQALCNIYGGITIGQAIIFCQTRRNAKWLTVEMMQDGHQVSLLSGELTVEQRASIIQRFRDGKEKVLITTNVCARGIDVKQVTIVVNFDLPVNQSEEPDYETYLHRIGRTGRFGKKGLAFNMIEVDKLPLLMKIQDHFNSNIKQLDPEDMDEIEKIEY | – | binding [4]: binds |

Continued, in another order:

| binding [1] | Molecule | also measured |
| --- | --- | --- |
| binds | PCBP2 (from UniProt Q61990 1-362) | – |
| binds | EWSR1 (from UniProt Q61545 1-655) | – |
